These are yes or no findings as the source states them, for the method shown. Binding seen in cells or lysates may run through a third protein. These calls come from enrichment with a bait or labelling near it, and not all partners need be listed.
Target: T1, MIC4 (Toxoplasma gondii (endogenous in RH/Δku80/Δhxgprt/dTomato parasites)) (UniProt Q9XZH7)
T1 sequence: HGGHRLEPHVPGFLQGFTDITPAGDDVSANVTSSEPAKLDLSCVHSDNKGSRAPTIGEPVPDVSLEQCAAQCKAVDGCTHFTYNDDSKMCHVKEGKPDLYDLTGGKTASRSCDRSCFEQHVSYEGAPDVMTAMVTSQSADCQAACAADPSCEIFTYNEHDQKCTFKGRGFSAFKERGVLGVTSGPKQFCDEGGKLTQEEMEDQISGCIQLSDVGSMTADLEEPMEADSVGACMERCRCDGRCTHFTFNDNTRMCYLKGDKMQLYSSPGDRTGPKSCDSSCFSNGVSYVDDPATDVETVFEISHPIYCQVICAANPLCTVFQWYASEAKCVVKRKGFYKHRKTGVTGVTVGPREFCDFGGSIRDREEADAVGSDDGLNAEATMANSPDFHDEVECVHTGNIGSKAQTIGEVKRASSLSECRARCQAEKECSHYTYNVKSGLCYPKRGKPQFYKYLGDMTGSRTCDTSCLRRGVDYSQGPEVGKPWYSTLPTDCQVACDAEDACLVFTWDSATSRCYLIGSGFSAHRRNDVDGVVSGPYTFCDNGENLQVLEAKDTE
Assay: affinity purification with mass spectrometry

B1: MIC1 (protein, UniProt O00834 17-456)
chain: VGPEAYGEASHSHSPASGRYIQQMLDQRCQEIAAELCQSGLRKMCVPSSRIVARNAVGITHQNTLQWRCFDTASLLESNQENNGVNCVDDCGHTIPCPGGVHRQNSNHATRHEILSKLVEEGVQRFCSPYQASANKYCNDKFPGTIARRSKGFGNNVEVAWRCYEKASLLYSVYAECASNCGTTWYCPGGRRGTSTELDKRHYTEEEGIRQAIGSVDSPCSEVEVCLPKDENPPLCLDESGQISRTGGGPPSQPPEMQQPADRSDERGGGKEQSPGGEAQPDHPTKGGNIDLPEKSTSPEKTPKTEIHGDSTKATLEEGQQLTLTFISTKLDVAVGSCHSLVANFLDGFLKFQTGSNSAFDVVEVEEPAGPAVLTIGLGHKGRLAVVLDYTRLNAALGSAAYVVEDSGCSSSEEVSFQGVGSGATLVVTTLGESPTAVSA
binding: binds

B2: MIC6 (protein, UniProt Q9XYH7 24-349)
chain: SPFFAFLPGNGEIADNCSGNPCGGTAAGTCINTPSGYDCRCEPGYVLGVENDQVTCMMPSGVPMANFVQLSETPAACSSNPCGPEAAGTCKETNSGYICRCNQGYRISLDGTGNVTCIVRQESGCEENGCGPPDAVQSCRRLTGTAGRLCVCKENFIATIDASAHITCKRVPPHYRKPPFEFGKGGHPVDSEPSKRQREDEGESREPESDSTEPGRDQERRTPLEESQEPEGSTPDSQQSRGGSGSDSTESEEQGKEREEGSGHAGAIAGGVIGGLLLLSAAGAGVAYMRKSGSGGGEEIEYERGIEAAEASEVEVLVDLDSKTWD
binding: binds
